Reference: the supplement of paper PMC10849652
The other results are listed elsewhere or left out.

By UniProt entry, the sequences of proteins in these tests, tags left out. Where a name states a change or a piece, a line headed by the entry shows the natural chain unless it says otherwise.
UniProt Q9BQE4, whole entry, looked up: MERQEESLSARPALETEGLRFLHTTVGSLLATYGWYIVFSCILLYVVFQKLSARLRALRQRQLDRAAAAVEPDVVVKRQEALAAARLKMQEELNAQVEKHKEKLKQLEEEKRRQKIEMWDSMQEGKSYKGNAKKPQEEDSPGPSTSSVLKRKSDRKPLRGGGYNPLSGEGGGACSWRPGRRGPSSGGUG
UniProt Q13228: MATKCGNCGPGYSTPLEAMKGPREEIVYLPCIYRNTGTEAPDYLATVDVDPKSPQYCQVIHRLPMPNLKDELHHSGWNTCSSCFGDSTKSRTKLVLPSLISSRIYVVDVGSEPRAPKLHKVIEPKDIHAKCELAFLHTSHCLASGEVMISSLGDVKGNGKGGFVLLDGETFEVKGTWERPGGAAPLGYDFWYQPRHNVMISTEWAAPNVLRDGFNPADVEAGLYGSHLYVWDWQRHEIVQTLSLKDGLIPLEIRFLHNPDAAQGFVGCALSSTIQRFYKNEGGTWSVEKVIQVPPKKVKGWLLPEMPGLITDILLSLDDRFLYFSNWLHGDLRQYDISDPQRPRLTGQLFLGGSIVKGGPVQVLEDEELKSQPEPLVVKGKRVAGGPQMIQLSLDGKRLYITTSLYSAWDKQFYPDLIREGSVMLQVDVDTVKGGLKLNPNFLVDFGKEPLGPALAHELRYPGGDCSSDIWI
UniProt Q15019: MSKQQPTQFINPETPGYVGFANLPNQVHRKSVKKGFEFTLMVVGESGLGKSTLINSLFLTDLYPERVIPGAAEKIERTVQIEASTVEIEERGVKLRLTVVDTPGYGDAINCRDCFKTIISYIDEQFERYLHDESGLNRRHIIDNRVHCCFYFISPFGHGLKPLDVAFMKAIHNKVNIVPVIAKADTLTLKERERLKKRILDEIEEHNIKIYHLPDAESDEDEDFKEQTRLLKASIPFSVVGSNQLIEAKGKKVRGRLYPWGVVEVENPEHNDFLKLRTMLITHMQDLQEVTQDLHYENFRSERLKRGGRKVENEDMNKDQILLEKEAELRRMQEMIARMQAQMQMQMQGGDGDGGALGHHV
UniProt Q5FBB7: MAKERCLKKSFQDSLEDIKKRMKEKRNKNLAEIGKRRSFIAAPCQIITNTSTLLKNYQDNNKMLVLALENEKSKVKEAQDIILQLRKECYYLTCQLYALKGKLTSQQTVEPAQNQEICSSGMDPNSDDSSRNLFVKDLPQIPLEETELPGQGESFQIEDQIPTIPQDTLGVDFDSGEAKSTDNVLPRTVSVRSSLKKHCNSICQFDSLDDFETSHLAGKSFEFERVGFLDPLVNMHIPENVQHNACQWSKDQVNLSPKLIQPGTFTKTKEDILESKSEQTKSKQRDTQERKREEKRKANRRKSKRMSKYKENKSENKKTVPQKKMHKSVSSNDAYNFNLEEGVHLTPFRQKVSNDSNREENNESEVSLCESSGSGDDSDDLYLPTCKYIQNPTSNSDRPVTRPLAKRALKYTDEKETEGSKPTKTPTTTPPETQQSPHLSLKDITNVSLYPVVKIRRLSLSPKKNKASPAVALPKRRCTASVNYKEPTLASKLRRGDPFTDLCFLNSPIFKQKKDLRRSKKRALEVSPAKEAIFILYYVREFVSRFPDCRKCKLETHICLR
UniProt Q96ST3: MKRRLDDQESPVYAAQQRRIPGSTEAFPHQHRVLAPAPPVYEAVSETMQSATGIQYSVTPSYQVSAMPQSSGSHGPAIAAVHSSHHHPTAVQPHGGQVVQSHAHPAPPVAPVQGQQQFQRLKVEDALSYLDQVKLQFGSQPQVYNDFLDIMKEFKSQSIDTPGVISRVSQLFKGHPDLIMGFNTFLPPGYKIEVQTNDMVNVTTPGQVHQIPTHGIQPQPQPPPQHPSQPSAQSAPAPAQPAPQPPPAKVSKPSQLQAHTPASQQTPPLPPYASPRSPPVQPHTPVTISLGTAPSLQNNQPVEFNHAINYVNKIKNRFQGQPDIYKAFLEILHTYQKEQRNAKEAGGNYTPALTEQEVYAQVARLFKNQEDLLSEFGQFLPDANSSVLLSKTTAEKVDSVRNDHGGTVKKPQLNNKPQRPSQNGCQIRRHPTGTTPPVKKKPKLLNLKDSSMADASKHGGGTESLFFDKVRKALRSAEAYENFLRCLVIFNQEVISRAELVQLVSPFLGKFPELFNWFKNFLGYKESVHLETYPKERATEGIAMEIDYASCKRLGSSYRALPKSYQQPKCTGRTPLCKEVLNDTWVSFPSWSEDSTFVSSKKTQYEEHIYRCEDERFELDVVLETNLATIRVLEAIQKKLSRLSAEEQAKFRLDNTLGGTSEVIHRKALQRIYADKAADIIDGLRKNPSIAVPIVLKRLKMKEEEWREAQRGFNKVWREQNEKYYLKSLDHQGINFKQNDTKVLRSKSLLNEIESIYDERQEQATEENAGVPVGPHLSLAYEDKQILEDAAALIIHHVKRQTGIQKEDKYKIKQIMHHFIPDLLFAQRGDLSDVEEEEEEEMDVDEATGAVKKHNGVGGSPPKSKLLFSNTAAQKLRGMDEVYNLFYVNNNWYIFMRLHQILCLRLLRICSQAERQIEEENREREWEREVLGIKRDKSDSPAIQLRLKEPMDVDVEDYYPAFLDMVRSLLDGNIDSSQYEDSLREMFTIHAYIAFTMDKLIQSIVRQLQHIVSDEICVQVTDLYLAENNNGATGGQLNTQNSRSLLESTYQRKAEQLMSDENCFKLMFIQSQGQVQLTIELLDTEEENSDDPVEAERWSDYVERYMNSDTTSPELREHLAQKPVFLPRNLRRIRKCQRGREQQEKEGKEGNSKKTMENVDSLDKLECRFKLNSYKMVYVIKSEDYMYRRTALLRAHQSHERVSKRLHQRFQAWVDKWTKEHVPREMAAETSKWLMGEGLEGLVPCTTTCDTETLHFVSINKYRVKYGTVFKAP
UniProt Q6P4A7: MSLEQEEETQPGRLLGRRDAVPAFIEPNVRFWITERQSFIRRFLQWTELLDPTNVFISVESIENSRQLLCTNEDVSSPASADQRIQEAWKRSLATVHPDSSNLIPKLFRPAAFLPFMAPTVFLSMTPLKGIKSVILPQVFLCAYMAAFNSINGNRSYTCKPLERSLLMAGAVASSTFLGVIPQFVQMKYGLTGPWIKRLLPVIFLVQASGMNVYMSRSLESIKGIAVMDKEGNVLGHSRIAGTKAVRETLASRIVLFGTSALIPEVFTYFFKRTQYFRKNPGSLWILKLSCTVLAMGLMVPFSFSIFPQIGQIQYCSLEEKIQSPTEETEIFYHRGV
UniProt Q99611, whole entry, looked up: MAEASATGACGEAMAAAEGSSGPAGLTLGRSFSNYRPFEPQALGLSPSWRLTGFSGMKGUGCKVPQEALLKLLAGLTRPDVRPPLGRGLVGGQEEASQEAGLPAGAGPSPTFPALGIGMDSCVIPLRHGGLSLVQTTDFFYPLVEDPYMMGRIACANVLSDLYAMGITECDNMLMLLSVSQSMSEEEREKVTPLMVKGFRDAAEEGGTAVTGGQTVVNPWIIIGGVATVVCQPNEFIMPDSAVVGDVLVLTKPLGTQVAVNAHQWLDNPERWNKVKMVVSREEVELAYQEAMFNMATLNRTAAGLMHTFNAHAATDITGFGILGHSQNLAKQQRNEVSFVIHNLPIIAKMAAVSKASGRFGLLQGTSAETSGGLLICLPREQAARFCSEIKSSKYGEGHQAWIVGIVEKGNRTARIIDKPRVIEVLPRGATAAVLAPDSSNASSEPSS
UniProt O75368: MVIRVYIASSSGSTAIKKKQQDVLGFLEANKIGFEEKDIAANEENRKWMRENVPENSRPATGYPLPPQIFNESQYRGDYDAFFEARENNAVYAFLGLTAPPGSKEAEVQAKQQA
UniProt Q96ES7: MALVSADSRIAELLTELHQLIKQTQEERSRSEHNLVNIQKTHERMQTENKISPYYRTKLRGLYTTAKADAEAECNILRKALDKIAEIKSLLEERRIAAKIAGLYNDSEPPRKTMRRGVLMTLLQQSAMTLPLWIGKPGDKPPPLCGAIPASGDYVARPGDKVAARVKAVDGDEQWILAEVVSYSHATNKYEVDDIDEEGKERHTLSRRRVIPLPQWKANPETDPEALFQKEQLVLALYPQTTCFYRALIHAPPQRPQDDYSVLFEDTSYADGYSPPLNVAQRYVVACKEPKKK
UniProt Q9NVA2: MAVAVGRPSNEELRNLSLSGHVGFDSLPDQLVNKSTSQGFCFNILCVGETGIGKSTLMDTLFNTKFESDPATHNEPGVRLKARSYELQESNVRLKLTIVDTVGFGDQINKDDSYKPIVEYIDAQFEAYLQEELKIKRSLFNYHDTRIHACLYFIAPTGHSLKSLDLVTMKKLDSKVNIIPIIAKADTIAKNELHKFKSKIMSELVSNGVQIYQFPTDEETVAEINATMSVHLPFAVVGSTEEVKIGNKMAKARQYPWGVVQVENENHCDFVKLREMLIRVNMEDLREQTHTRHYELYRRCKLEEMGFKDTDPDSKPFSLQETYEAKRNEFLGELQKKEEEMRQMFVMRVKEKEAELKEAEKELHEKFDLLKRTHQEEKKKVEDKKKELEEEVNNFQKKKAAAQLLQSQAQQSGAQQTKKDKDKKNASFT
UniProt Q14141: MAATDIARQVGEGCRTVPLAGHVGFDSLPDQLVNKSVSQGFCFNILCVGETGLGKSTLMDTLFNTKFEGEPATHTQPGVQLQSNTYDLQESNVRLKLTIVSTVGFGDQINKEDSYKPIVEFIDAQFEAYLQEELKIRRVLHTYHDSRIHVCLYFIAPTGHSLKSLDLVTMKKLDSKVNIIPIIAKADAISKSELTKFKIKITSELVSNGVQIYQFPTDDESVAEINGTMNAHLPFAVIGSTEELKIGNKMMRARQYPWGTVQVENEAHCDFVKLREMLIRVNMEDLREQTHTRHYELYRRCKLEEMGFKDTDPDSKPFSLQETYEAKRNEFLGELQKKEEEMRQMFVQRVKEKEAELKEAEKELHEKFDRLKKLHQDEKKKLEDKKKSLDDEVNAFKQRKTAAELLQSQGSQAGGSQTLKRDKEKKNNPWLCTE
UniProt Q9UBV2: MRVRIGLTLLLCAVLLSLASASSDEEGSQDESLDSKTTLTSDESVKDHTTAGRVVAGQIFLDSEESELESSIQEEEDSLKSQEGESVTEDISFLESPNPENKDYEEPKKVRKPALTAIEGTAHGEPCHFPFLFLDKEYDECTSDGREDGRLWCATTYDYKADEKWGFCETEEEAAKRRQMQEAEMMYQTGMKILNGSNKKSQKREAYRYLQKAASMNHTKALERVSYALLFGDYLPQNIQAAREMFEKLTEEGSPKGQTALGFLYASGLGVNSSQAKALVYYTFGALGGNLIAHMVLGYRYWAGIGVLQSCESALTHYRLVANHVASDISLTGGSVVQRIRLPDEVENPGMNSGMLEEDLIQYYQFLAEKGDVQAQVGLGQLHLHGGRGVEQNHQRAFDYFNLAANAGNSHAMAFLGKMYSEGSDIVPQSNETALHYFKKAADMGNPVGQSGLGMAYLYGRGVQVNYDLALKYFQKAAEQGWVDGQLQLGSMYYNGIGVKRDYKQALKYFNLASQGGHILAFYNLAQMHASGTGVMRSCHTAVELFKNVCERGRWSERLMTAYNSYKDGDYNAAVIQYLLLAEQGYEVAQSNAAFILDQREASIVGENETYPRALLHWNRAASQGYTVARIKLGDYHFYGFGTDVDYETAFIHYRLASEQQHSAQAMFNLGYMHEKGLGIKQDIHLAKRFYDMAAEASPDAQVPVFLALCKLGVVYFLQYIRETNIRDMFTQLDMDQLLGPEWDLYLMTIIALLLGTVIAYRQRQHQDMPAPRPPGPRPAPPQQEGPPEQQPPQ
UniProt Q8N6T7, whole entry, looked up: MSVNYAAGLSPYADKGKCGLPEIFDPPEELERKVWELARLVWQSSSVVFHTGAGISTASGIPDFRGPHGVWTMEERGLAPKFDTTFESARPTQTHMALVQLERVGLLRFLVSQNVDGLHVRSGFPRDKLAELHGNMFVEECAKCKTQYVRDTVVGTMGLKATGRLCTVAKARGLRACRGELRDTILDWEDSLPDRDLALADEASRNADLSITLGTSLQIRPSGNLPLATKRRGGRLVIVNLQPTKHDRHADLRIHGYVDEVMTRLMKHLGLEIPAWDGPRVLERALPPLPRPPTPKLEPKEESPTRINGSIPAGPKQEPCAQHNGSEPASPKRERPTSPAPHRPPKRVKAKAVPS
UniProt P50452: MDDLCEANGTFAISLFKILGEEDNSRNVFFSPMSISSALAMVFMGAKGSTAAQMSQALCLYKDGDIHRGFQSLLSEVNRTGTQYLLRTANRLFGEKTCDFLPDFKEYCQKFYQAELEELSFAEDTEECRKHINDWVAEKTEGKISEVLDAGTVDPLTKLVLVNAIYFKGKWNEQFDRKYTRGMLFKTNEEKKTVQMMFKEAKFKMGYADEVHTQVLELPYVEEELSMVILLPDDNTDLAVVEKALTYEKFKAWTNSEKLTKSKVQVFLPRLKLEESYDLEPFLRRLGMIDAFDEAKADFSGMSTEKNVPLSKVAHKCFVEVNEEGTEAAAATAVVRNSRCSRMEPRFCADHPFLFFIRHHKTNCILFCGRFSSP

Columns and labels:
Test in all cases: log2 fold change, soluble protein after heating vs DMSO (PISA); higher = thermal stabilisation; K562 cells, 10 uM, 30 min; active = over 0.2 and 3.5 SD of the protein, either way, in both replicates (recomputed)
[1] = compound: CC[C@@H]1C(=O)N(C)c2cnc(Nc3ccc(C(=O)NC4CCN(C)CC4)cc3OC)nc2N1C1CCCC1
Procedure, shortened: (§1)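 K562 cells at 2×10^6 cells/mL were treated with 10 μM compound for 30 min. Aliquots were heated for 3 min across 48°C-58°C, pooled, and extracted in PBS with 0.5% NP-40 at 4°C; soluble protein was the supernatant after 21,000xg for 90 min. Soluble protein was quantified by TMTpro 16plex LC-MS/MS with channel sums equalised, and reported as log2 fold change in thermal stability against DMSO controls, with values from duplicates.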

volasertib = compound: CC[C@@H]1C(=O)N(C)c2cnc(Nc3ccc(C(=O)N[C@H]4CC[C@H](N5CCN(CC6CC6)CC5)CC4)cc3OC)nc2N1C(C)C [volasertib]
Procedure, shortened: as §1

[2] = compound: CC[C@H](C)N1C=C(C2=C(C=C(C=C21)C3=CN=C(C=C3)N4CCNCC4)C(=O)NCC5=C(C=C(NC5=O)C)C)C
Procedure, shortened: as §1

epoxomicin = compound: CC[C@H](C)[C@@H](C(=O)N[C@@H]([C@@H](C)O)C(=O)N[C@@H](CC(C)C)C(=O)[C@]1(CO1)C)NC(=O)[C@H]([C@@H](C)CC)N(C)C(=O)C [epoxomicin]
Procedure, shortened: as §1

[3] = compound: CCn1c(C(=O)N(C2CC2)C2CC2)cc2c3c(ncn3C)c(Nc3cc(C)n(C)n3)nc21
Procedure, shortened: as §1

[4] = compound: CCn1cc(-c2ccnc3[nH]c(-c4cccc(CN(C)C)c4)cc23)c(-c2ccc(NC(=O)N(C)C)cc2)n1
Procedure, shortened: as §1

[5] = compound: CN(C)CC(=O)Nc1ccc2[nH]c(=O)c3ccccc3c2c1
Procedure, shortened: as §1

rosiglitazone = compound: CN(CCOC1=CC=C(C=C1)C[C@H]2C(=O)NC(=O)S2)C3=CC=CC=N3 (racemic) [rosiglitazone]
Procedure, shortened: as §1

[6] = compound: CN1C2=C(C3=C1C(=O)N(N=C3)CC4=CC(=CC=C4)N)SC(=C2)S(=O)C
Procedure, shortened: as §1

[7] = compound: CN1CCC(CNc2ccc3ncc(-c4cccc(OC(F)(F)F)c4)n3n2)CC1
Procedure, shortened: as §1

saracatinib = compound: CN1CCN(CCOc2cc(OC3CCOCC3)c3c(Nc4c(Cl)ccc5c4OCO5)ncnc3c2)CC1 [saracatinib]
Procedure, shortened: as §1

sotrastaurin = compound: CN1CCN(c2nc(C3=C(c4c[nH]c5ccccc45)C(=O)NC3=O)c3ccccc3n2)CC1 [sotrastaurin]
Procedure, shortened: as §1

alvocidib = compound: CN1CC[C@H](c2c(O)cc(O)c3c(=O)cc(-c4ccccc4Cl)oc23)[C@H](O)C1 [alvocidib]
Procedure, shortened: as §1

Tubastatin A = compound: CN1CCc2c(c3ccccc3n2Cc2ccc(C(=O)NO)cc2)C1 [Tubastatin A]
Procedure, shortened: as §1

[8] = compound: CNC(=O)C1=CC=CC=C1NC2=NC(=NC=C2Cl)NC3=C(C=C(C=C3)N4CCOCC4)OC
Procedure, shortened: as §1

defactinib = compound: CNC(=O)c1ccc(Nc2ncc(C(F)(F)F)c(NCc3nccnc3N(C)S(C)(=O)=O)n2)cc1 [defactinib]
Procedure, shortened: as §1

rucaparib = compound: CNCc1ccc(-c2[nH]c3cc(F)cc4c3c2CCNC4=O)cc1 [rucaparib]
Procedure, shortened: as §1

[9] = compound: CNc1nc(-c2ccc3c(N)n[nH]c3c2)cc(N2C[C@@H](C(=O)NC3CCCCC3)CC[C@H]2C)n1
Procedure, shortened: as §1

encorafenib = compound: COC(=O)N[C@@H](C)CNc1nccc(-c2cn(C(C)C)nc2-c2cc(Cl)cc(NS(C)(=O)=O)c2F)n1 [encorafenib]
Procedure, shortened: as §1

[10] = compound: COC(=O)[C@H](CCSC)NC(=O)C1=C(C=C(C=C1)NC[C@H](CS)N)C2=CC=CC=C2
Procedure, shortened: as §1

Measured: log2 fold change

SELENOS (UniProt Q9BQE4)
inactive: [1] 0.009 | volasertib 0 | [2] -0.031 | epoxomicin 0.169 | [3] 0.051 | [4] -0.023 | [5] -0.044 | rosiglitazone 0.034 | [6] 0.008 | [7] 0.042 | saracatinib 0.046 | sotrastaurin -0.015 | alvocidib -0.022 | Tubastatin A 0.061 | [8] 0.003 | defactinib -0.046 | rucaparib -0.038 | [9] -0.034 | encorafenib -0.011 | [10] 0.03

SELENBP1 isoform 4 (UniProt Q13228)
inactive: [1] -0.026 | volasertib 0.048 | [2] -0.006 | epoxomicin 0.041 | [3] -0.035 | [4] 0.006 | [5] -0.005 | rosiglitazone -0.014 | [6] -0.014 | [7] -0.04 | saracatinib 0.082 | sotrastaurin -0.003 | alvocidib 0.013 | Tubastatin A -0.032 | [8] -0.062 | defactinib -0.016 | rucaparib -0.02 | [9] -0.04 | encorafenib -0.025 | [10] 0.052

SEPTIN2 isoform 2 (UniProt Q15019)
inactive: [1] 0.042 | volasertib 0.055 | [2] -0.034 | epoxomicin 0.006 | [3] -0.012 | [4] -0.015 | [5] -0.008 | rosiglitazone 0.029 | [6] -0.026 | [7] -0.009 | saracatinib 0.003 | sotrastaurin 0.072 | alvocidib -0.018 | Tubastatin A 0.018 | [8] -0.046 | defactinib -0.009 | rucaparib -0.044 | [9] -0.002 | encorafenib -0.01 | [10] 0.013

SGO1 (UniProt Q5FBB7)
inactive: [1] 0.008 | volasertib 0.054 | [2] 0.052 | epoxomicin 0.028 | [3] 0.003 | [4] -0.092 | [5] -0.006 | rosiglitazone 0.02 | [6] -0.05 | [7] 0.014 | saracatinib -0.068 | sotrastaurin -0.067 | alvocidib -0.027 | Tubastatin A 0.051 | [8] -0.034 | defactinib -0.025 | rucaparib 0.01 | [9] 0.006 | encorafenib 0 | [10] -0.011

SIN3A (UniProt Q96ST3)
inactive: [1] -0.057 | volasertib -0.322 | [2] 0.127 | epoxomicin 0.033 | [3] 0.013 | [4] 0.165 | [5] 0.11 | rosiglitazone 0.047 | [6] 0.001 | [7] -0.252 | saracatinib 0.019 | sotrastaurin -0.118 | alvocidib 0.011 | Tubastatin A 0.042 | [8] 0.087 | defactinib -0.075 | rucaparib -0.021 | [9] -0.072 | encorafenib 0.024 | [10] -0.095

SFXN4 (UniProt Q6P4A7)
inactive: [1] 0.062 | volasertib -0.016 | [2] -0.044 | epoxomicin -0.037 | [3] 0.007 | [4] -0.045 | [5] 0.042 | rosiglitazone 0.008 | [6] -0.038 | [7] 0.049 | saracatinib 0.051 | sotrastaurin 0.024 | alvocidib 0.024 | Tubastatin A -0.019 | [8] 0.002 | defactinib -0.013 | rucaparib -0.045 | [9] 0.004 | encorafenib 0.016 | [10] -0.004

SEPHS2 (UniProt Q99611)
inactive: [1] 0.043 | volasertib 0.023 | [2] -0.034 | epoxomicin 0.026 | [3] 0.024 | [4] -0.029 | [5] 0.03 | rosiglitazone -0.002 | [6] -0.038 | [7] 0.153 | saracatinib 0.078 | sotrastaurin -0.008 | alvocidib -0.022 | Tubastatin A -0.008 | [8] -0.034 | defactinib -0.023 | rucaparib -0.133 | [9] 0.043 | encorafenib 0.07 | [10] 0.004

2 neighbouring entries already listed, for reference:
SFXN4 (UniProt Q6P4A7)
inactive: [1] 0.062 | volasertib -0.016 | [2] -0.044 | epoxomicin -0.037 | [3] 0.007 | [4] -0.045 | [5] 0.042 | rosiglitazone 0.008 | [6] -0.038 | [7] 0.049 | saracatinib 0.051 | sotrastaurin 0.024 | alvocidib 0.024 | Tubastatin A -0.019 | [8] 0.002 | defactinib -0.013 | rucaparib -0.045 | [9] 0.004 | encorafenib 0.016 | [10] -0.004

SEPHS2 (UniProt Q99611)
inactive: [1] 0.043 | volasertib 0.023 | [2] -0.034 | epoxomicin 0.026 | [3] 0.024 | [4] -0.029 | [5] 0.03 | rosiglitazone -0.002 | [6] -0.038 | [7] 0.153 | saracatinib 0.078 | sotrastaurin -0.008 | alvocidib -0.022 | Tubastatin A -0.008 | [8] -0.034 | defactinib -0.023 | rucaparib -0.133 | [9] 0.043 | encorafenib 0.07 | [10] 0.004

Remaining list, next part.

SH3BGRL (UniProt O75368)
inactive: [1] -0.002 | volasertib 0.048 | [2] 0.166 | epoxomicin 0.006 | [3] 0.025 | [4] -0.004 | [5] 0 | rosiglitazone -0.014 | [6] -0.077 | [7] -0.127 | saracatinib -0.025 | sotrastaurin -0.147 | alvocidib -0.055 | Tubastatin A 0.006 | [8] -0.013 | defactinib -0.022 | rucaparib -0.014 | [9] 0.009 | encorafenib -0.004 | [10] -0.057

SGF29 (UniProt Q96ES7)
inactive: [1] 0.025 | volasertib 0.008 | [2] 0.022 | epoxomicin 0.018 | [3] -0.059 | [4] -0.12 | [5] 0.059 | rosiglitazone 0.006 | [6] -0.051 | [7] 0.049 | saracatinib 0.045 | sotrastaurin 0.013 | alvocidib -0.022 | Tubastatin A 0.012 | [8] -0.023 | defactinib -0.094 | rucaparib 0.015 | [9] -0.057 | encorafenib 0.029 | [10] -0.013

SF3B2 (UniProt Q13435)
inactive: [1] 0.058 | volasertib -0.038 | [2] 0.019 | epoxomicin -0.086 | [3] 0.005 | [4] 0.1 | [5] 0 | rosiglitazone -0.03 | [6] 0.102 | [7] 0.062 | saracatinib -0.03 | sotrastaurin -0.08 | alvocidib 0.089 | Tubastatin A 0.037 | [8] -0.018 | defactinib 0.069 | rucaparib 0.088 | [9] -0.009 | encorafenib 0.085 | [10] -0.016

SEPTIN11 isoform 2 (UniProt Q9NVA2)
inactive: [1] 0.034 | volasertib 0.031 | [2] -0.012 | epoxomicin 0.022 | [3] -0.012 | [4] -0.016 | [5] -0.015 | rosiglitazone -0.008 | [6] -0.056 | [7] 0.02 | saracatinib 0.02 | sotrastaurin 0.032 | alvocidib -0.018 | Tubastatin A 0.013 | [8] -0.021 | defactinib -0.01 | rucaparib -0.014 | [9] -0.035 | encorafenib -0.006 | [10] 0.017

SEPTIN6 (UniProt Q14141)
inactive: [1] 0.001 | volasertib 0.072 | [2] -0.02 | epoxomicin -0.007 | [3] 0.083 | [4] -0.017 | [5] -0.032 | rosiglitazone 0.023 | [6] -0.105 | [7] -0.057 | saracatinib 0.052 | sotrastaurin -0.023 | alvocidib -0.007 | Tubastatin A -0.017 | [8] -0.006 | defactinib -0.018 | rucaparib -0.026 | [9] -0.03 | encorafenib 0 | [10] 0.011

SEL1L (UniProt Q9UBV2)
inactive: [1] -0.038 | volasertib -0.052 | [2] 0.038 | epoxomicin 0.006 | [3] 0 | [4] -0.023 | [5] -0.026 | rosiglitazone 0.043 | [6] 0.024 | [7] 0.024 | saracatinib 0.016 | sotrastaurin -0.056 | alvocidib -0.041 | Tubastatin A 0.014 | [8] -0.024 | defactinib 0.011 | rucaparib 0.097 | [9] 0.001 | encorafenib -0.003 | [10] 0.016

SHC1 isoform 6 (UniProt P29353)
inactive: [1] -0.018 | volasertib -0.025 | [2] 0 | epoxomicin 0 | [3] -0.01 | [4] -0.004 | [5] 0.012 | rosiglitazone 0.036 | [6] -0.036 | [7] -0.014 | saracatinib 0.003 | sotrastaurin 0.028 | alvocidib -0.033 | Tubastatin A -0.027 | [8] -0.019 | defactinib -0.019 | rucaparib -0.02 | [9] -0.049 | encorafenib 0.012 | [10] 0.063

SIRT6 (UniProt Q8N6T7)
inactive: [1] -0.236 | volasertib 0.001 | [2] -0.231 | epoxomicin -0.004 | [3] -0.022 | [4] -0.082 | [5] 0.076 | rosiglitazone 0.167 | [6] 0.077 | [7] 0.021 | saracatinib -0.071 | sotrastaurin -0.025 | alvocidib -0.017 | Tubastatin A 0.002 | [8] -0.026 | defactinib -0.07 | rucaparib 0.255 | [9] -0.033 | encorafenib -0.017 | [10] -0.036

SERPINB8 (UniProt P50452)
inactive: [1] -0.047 | volasertib 0.109 | [2] -0.041 | epoxomicin 0.005 | [3] 0.026 | [4] -0.046 | [5] -0.105 | rosiglitazone -0.042 | [6] -0.015 | [7] -0.012 | saracatinib 0.051 | sotrastaurin -0.008 | alvocidib 0.088 | Tubastatin A -0.068 | [8] -0.06 | defactinib -0.016 | rucaparib -0.103 | [9] -0.05 | encorafenib -0.034 | [10] 0.049
